Measured data: PubChem BioAssay AID504786 (Drosophila RNAi Screening Center, 2011)
The screen tested about 21,000 reagents; shown is an unselected part of those that have a named target and a result. 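Primary screen; positive scores mean lost reporter signal, so the sign may be inverted from the usual convention.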 A plus sign joins genes that one reagent is predicted to hit.

Purpose: 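Positive regulators of HIF-driven reporter output in Drosophila cells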 (primary screen)
Cell system: Drosophila S2 cells with a stable HIF luciferase reporter
Knock-down reagent: long dsRNA against Drosophila genes, about 0.2 µg dsRNA per well of a 384-well plate
Time to read-out: three days of knock-down, then 20 h of DFO before reading
Conditions: desferrioxamine (DFO) at 100 µM, an iron chelator that mimics hypoxia, for 20 h
Detection: 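Firefly luciferase driven by the mouse ldh-a hypoxia-response element, measured after 20 h of 100 µM DFO; z-scores per plate, higher means more signal lost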
Direction: z-score: higher = stronger loss of HIF reporter signal

gene knocked down | DRSC id | z-score, replicate 1 | z-score, replicate 2 | z-score, replicate 3 | z-score, replicate 4
CG5181 | DRSC02825 | -0.3 | -0.5 | – | –
CG6204 | DRSC15991 | -0.3 | -0.5 | – | –
CG7083 | DRSC11136 | -0.1 | -0.6 | – | –
CG15317 | DRSC18005 | -0.2 | -0.7 | – | –
Doc3 | DRSC10480 | -0.4 | -0.1 | – | –
HLH54F | DRSC07438 | -0.6 | -0.6 | – | –
RluA-2 | DRSC02939 | -0.2 | -0.4 | – | –
Pde6 | DRSC16401 | 0 | -0.2 | – | –
Pde6 | DRSC16402 | -0.1 | -0.5 | – | –
Pde6 | DRSC16403 | -0.1 | -0.4 | – | –
ss | DRSC17069 | -0.2 | -0.1 | – | –
Grx5 | DRSC19593 | 0.1 | -0.5 | – | –
Spn88Eb | DRSC16093 | -0.1 | -0.1 | – | –
tal-1A + tal-2A + tal-AA + 1 more | DRSC12992 | 0 | 0 | – | –
mAChR-A | DRSC04702 | -0.2 | -0.2 | – | –
CG14183 | DRSC10182 | -0.3 | -0.5 | – | –
CG11369 | DRSC17779 | -0.3 | -0.8 | – | –
Reck | DRSC10504 | -0.3 | -0.3 | – | –
Reck | DRSC10505 | -0.3 | -0.5 | – | –
CG6628 | DRSC10679 | -0.2 | -0.3 | – | –
CG17230 | DRSC15203 | -0.4 | -0.5 | – | –
CG34256 | DRSC09582 | 1 | 0.3 | – | –
CheA46a | DRSC05184 | -0.2 | -0.1 | – | –
Cyp318a1 | DRSC19784 | -0.3 | 0.1 | – | –
Lrr47 | DRSC03365 | -0.4 | -0.5 | – | –
CG2017 | DRSC12293 | -0.4 | -0.4 | – | –
Rtel1 | DRSC18343 | -0.3 | -0.3 | – | –
CG12964 | DRSC06266 | 0 | 0.3 | – | –
CheA7a | DRSC17965 | -0.3 | -0.3 | – | –
Remo | DRSC19710 | -0.1 | -0.2 | – | –
CG5359 | DRSC15780 | -0.4 | -0.3 | – | –
CG9577 | DRSC20693 | 0 | -0.3 | – | –
Kr-h1 | DRSC00908 | -0.1 | 0.5 | – | –
Kr-h1 | DRSC03355 | -0.1 | 0.1 | – | –
sigmar | DRSC04449 | -0.2 | 0 | – | –
Adk2 | DRSC09827 | -0.2 | -0.1 | – | –
CG13605 | DRSC14608 | -0.2 | -0.3 | – | –
Ubc10 | DRSC07568 | -0.2 | -0.3 | – | –
ECSIT | DRSC12348 | -0.1 | -0.5 | – | –

The list goes on; the last 9 above are carried over.
gene knocked down | DRSC id | z-score, replicate 1 | z-score, replicate 2 | z-score, replicate 3 | z-score, replicate 4
CG5359 | DRSC15780 | -0.4 | -0.3 | – | –
CG9577 | DRSC20693 | 0 | -0.3 | – | –
Kr-h1 | DRSC00908 | -0.1 | 0.5 | – | –
Kr-h1 | DRSC03355 | -0.1 | 0.1 | – | –
sigmar | DRSC04449 | -0.2 | 0 | – | –
Adk2 | DRSC09827 | -0.2 | -0.1 | – | –
CG13605 | DRSC14608 | -0.2 | -0.3 | – | –
Ubc10 | DRSC07568 | -0.2 | -0.3 | – | –
ECSIT | DRSC12348 | -0.1 | -0.5 | – | –
Vha36-3 | DRSC18615 | -0.3 | -0.9 | – | –
inaF-B | DRSC18903 | -0.2 | -0.2 | – | –
MsR2 + CG13802 (retired record) | DRSC08336 | -0.4 | -0.6 | – | –
MsR2 + CG13802 (retired record) | DRSC08337 | -0.3 | -0.9 | – | –
CG33502 + CG32857 + CG32500 | DRSC20817 | -0.2 | -0.1 | – | –
CG33502 + CG32857 + CG32500 | DRSC21038 | -0.2 | 1 | – | –
CycE | DRSC03295 | 3.4 | 4.1 | – | –
CycE | DRSC03296 | 0.7 | 4.4 | – | –
CG10063 | DRSC09688 | -0.4 | -0.8 | – | –
CG9737 | DRSC16550 | -0.5 | -0.2 | – | –
CG34434 | DRSC18134 | 0.1 | -0.1 | – | –
CG13869 + CG11099 | DRSC06428 | -0.2 | -0.3 | – | –
His3.3B | DRSC17773 | -0.2 | -0.6 | – | –
His3.3B | DRSC18673 | -0.6 | 1.3 | – | –
CG11414 | DRSC04110 | -0.3 | -0.5 | – | –
Nup358 | DRSC14410 | -0.1 | -0.1 | – | –
Cnx99A + Cnx14D | DRSC16610 | -0.3 | -0.6 | – | –
CG10474 | DRSC05993 | -0.2 | -0.4 | – | –
RhoGEF3 (retired record) | DRSC08266 | 0.3 | 0.5 | -0.6 | -0.3
RhoGEF3 (retired record) | DRSC08353 | -0.1 | -0.1 | – | –
Ir7a | DRSC17866 | -0.1 | -0.1 | – | –
Arp1 | DRSC14118 | -0.3 | -0.4 | – | –
PGRP-LC | DRSC08980 | -0.1 | -0.1 | – | –
PGRP-LC | DRSC10416 | -0.3 | -0.3 | – | –
PGRP-LC | DRSC10417 | -0.4 | -0.2 | – | –
CG10970 | DRSC17772 | -0.4 | -0.6 | – | –
Jhedup | DRSC07173 | -0.2 | -0.3 | – | –
Elys | DRSC19571 | -0.3 | 0.1 | – | –
Prp3 | DRSC10912 | 3.2 | 5.1 | – | –
pot | DRSC19850 | -0.4 | -0.6 | – | –
Cpn | DRSC16613 | -0.4 | -0.5 | – | –
att-ORFB + DPCoAC | DRSC15556 | -0.1 | -0.1 | – | –
CG15506 | DRSC15047 | 0 | -0.3 | – | –
Arms | DRSC03856 | -0.4 | -0.8 | 0 | -0.3
Arms | DRSC03857 | -0.2 | 0.1 | – | –
Arms | DRSC04052 | -0.2 | -0.3 | – | –
Arms | DRSC04256 | 0.8 | 3.3 | – | –
CG12728 | DRSC17883 | -0.3 | -0.4 | – | –
CG12769 | DRSC06167 | -0.4 | -0.4 | – | –
wmd | DRSC04436 | -0.4 | -0.7 | – | –
Jhbp3 | DRSC12247 | -0.2 | 0 | – | –
sm | DRSC05795 | -0.2 | -0.3 | – | –
sm | DRSC07686 | -0.3 | -0.8 | – | –
cocoon | DRSC10916 | -0.3 | -0.2 | – | –
CG14621 | DRSC20635 | -0.5 | -0.1 | – | –
anne | DRSC17103 | 7.2 | 5.7 | – | –
AlkB | DRSC19115 | -0.3 | -0.4 | – | –
Spn77Ba | DRSC10693 | -0.3 | -0.2 | – | –
Osi4 | DRSC12134 | -0.3 | -0.3 | – | –
CG14605 | DRSC12549 | -0.1 | -0.1 | – | –
2mit | DRSC14194 | -0.1 | -0.1 | – | –
2mit | DRSC15224 | -0.1 | -0.4 | – | –
Sras | DRSC11287 | -0.3 | -0.5 | – | –
Gfat1 | DRSC21219 | -0.1 | -0.1 | – | –
CG12862 | DRSC06202 | -0.3 | -0.6 | – | –
Mpp6 | DRSC03169 | 0.2 | 0.7 | – | –
Rhau | DRSC03200 | -0.2 | 0 | – | –
nod | DRSC18900 | -0.5 | -0.2 | – | –
nod | DRSC20356 | 0.3 | 0.5 | – | –
unk | DRSC17093 | -0.3 | -0.5 | – | –
sta | DRSC18838 | 3.8 | 3.9 | – | –
CG43347 | DRSC17982 | -0.5 | -0.8 | – | –
CG43347 | DRSC18446 | -0.4 | -0.8 | 3.7 | 0.3
CG43078 | DRSC10292 | -0.3 | -0.5 | – | –
CG43078 | DRSC10608 | -0.2 | -0.3 | – | –
CG32017 | DRSC17183 | -0.3 | -0.5 | – | –
CG32445 | DRSC11678 | -0.2 | 0.4 | – | –
